Structures can show the parent of a compound that is named as a salt. The list shows a part of the results. The calls rarely recur for the same compound in another form.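 In K562 cells expressing nanoluciferase-fused kinases, luminescence was recorded at 4 h intervals between 2 and 18 h, normalized as percent of control with DMSO at 100% and a positive control at 0%. A significant (2 sigma) signal drop marks a time point as decreased. The authors' rule for a hit is not shown and takes in more than the number of time points.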
Assays:
Assay in all cases: kinase-Nluc reporter destabilization hit call (1 = scored as downregulated) (binary); higher = compound decreases kinase abundance
Conditions in all cases: K562; 2-18 h
EGFR = EGFR (UniProt P00533)
EGFR_G719S = EGFR_G719S (UniProt P00533)
EGFR_G719S_T790M = EGFR_G719S_T790M (UniProt P00533)
EGFR_L718V = EGFR_L718V (UniProt P00533)
EGFR_L858R = EGFR_L858R (UniProt P00533)
EGFR_L861Q = EGFR_L861Q (UniProt P00533)
EGFR_T790M = EGFR_T790M (UniProt P00533)
EPHA2 = EPHA2 (UniProt P29317)
ERBB3 = ERBB3 (UniProt P21860)
[1] = target: ERBB4_R711C (clone: ERBB4_mut) (UniProt Q15303)
ERN1 = ERN1 (UniProt O75460)
FGFR1 = FGFR1 (UniProt P11362)
FGFR2 = FGFR2 (UniProt P21802)
FGFR3 = FGFR3 (UniProt P22607)
FGR = FGR (UniProt P09769)
FLT3 = FLT3 (UniProt P36888)
FYN = FYN (UniProt P06241)
GSK3A = GSK3A (UniProt P49840)
HER2 = HER2 (UniProt P04626)
INSRR = INSRR (UniProt P14616)

The chains behind the UniProt entries cited, without tags or fusion partners.
UniProt P29317, whole entry: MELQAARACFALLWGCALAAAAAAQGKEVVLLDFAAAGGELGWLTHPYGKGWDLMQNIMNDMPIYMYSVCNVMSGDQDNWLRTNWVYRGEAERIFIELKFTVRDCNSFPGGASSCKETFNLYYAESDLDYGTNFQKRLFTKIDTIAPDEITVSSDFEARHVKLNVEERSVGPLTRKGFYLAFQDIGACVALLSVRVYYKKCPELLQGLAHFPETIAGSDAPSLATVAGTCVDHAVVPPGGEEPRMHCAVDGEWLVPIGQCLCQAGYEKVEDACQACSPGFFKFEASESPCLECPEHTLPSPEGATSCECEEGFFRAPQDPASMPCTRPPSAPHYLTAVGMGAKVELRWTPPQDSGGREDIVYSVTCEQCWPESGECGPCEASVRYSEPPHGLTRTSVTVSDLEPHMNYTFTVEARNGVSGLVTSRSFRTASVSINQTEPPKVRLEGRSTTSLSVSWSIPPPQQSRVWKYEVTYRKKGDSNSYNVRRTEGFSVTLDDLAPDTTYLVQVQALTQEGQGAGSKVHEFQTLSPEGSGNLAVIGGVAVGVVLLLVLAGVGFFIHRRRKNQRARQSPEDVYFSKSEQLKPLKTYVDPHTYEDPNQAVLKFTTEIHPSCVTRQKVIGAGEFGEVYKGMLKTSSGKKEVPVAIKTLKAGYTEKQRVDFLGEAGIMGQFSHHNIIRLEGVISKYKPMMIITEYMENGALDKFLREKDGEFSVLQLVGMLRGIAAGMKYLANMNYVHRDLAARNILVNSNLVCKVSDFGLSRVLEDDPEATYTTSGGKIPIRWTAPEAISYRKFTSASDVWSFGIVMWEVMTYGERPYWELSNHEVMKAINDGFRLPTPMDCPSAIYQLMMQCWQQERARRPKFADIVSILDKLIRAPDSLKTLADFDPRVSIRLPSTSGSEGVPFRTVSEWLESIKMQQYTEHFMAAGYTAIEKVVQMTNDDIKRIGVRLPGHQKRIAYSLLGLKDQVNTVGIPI
UniProt P21860, whole entry: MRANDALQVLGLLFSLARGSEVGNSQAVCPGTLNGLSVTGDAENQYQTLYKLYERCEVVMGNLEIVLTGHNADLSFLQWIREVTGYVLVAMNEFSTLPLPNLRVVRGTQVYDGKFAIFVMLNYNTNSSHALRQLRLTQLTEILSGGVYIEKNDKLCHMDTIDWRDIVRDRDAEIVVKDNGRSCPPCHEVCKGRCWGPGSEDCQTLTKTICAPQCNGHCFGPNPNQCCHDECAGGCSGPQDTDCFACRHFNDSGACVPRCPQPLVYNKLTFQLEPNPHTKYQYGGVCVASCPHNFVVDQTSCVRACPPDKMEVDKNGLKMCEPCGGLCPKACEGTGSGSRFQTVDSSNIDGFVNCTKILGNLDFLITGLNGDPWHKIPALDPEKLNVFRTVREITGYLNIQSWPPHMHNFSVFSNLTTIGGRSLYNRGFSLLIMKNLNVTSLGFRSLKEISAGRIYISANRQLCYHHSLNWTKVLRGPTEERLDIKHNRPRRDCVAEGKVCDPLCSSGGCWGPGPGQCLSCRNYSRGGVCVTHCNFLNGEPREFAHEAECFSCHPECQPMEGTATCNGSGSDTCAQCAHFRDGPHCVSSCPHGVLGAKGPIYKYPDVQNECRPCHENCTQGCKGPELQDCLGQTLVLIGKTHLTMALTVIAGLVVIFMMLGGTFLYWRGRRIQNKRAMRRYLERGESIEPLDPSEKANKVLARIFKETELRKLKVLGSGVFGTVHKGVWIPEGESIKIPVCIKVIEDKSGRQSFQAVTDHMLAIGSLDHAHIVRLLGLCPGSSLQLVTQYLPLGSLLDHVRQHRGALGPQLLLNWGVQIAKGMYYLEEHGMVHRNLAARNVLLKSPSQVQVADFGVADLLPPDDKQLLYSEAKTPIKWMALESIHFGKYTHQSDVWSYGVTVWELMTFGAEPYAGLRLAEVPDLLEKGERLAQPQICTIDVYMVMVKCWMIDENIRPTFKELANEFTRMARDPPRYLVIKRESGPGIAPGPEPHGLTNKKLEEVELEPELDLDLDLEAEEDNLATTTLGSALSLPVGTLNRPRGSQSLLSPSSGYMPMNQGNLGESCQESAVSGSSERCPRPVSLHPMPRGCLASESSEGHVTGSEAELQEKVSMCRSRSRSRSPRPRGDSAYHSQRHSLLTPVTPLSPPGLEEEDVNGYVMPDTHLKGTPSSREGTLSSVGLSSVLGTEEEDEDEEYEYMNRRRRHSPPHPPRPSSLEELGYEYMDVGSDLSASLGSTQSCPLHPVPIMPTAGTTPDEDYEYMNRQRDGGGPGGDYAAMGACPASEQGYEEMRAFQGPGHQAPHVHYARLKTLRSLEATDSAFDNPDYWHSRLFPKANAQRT
UniProt P11362, whole entry, looked up: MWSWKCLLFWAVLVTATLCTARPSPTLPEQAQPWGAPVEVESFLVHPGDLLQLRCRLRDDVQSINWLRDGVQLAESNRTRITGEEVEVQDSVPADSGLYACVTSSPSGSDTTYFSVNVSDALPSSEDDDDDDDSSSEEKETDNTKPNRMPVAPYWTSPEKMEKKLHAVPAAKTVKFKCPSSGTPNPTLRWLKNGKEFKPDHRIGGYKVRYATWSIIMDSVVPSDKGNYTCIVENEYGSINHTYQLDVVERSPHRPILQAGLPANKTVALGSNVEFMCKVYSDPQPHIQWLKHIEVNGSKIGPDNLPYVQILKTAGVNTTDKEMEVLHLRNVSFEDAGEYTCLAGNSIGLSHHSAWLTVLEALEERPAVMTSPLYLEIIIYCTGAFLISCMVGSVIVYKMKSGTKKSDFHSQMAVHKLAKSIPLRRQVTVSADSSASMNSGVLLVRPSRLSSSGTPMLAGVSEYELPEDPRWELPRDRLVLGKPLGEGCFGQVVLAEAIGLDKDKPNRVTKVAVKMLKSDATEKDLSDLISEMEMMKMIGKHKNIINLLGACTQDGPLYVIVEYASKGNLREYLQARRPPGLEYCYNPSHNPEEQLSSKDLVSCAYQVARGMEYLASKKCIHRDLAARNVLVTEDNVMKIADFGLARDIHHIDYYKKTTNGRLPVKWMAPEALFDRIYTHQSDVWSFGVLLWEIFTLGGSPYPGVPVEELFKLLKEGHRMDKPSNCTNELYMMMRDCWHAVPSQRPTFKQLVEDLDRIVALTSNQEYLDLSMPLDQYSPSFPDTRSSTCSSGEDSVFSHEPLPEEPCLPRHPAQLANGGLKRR
UniProt P21802, whole entry, looked up: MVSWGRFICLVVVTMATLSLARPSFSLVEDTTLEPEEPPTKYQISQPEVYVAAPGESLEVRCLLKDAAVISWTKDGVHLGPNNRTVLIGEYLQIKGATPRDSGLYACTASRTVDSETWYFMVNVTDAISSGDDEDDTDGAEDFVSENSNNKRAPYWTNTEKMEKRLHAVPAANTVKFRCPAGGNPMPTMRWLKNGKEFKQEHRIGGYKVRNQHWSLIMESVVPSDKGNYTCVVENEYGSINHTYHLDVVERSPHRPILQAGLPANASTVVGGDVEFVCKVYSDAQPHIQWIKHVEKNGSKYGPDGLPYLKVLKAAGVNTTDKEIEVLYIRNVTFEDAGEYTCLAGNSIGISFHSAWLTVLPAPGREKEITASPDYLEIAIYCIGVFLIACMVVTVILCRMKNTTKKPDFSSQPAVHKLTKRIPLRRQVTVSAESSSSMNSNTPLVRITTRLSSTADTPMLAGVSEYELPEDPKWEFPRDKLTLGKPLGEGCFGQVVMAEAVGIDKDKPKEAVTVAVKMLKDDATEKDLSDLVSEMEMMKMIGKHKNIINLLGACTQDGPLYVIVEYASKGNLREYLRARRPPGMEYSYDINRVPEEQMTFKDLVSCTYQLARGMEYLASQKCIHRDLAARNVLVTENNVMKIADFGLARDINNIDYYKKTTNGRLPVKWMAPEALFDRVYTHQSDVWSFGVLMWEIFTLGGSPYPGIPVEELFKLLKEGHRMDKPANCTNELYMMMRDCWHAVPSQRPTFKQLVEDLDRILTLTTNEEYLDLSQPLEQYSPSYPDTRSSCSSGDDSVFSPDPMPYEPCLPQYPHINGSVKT
UniProt P22607, whole entry, looked up: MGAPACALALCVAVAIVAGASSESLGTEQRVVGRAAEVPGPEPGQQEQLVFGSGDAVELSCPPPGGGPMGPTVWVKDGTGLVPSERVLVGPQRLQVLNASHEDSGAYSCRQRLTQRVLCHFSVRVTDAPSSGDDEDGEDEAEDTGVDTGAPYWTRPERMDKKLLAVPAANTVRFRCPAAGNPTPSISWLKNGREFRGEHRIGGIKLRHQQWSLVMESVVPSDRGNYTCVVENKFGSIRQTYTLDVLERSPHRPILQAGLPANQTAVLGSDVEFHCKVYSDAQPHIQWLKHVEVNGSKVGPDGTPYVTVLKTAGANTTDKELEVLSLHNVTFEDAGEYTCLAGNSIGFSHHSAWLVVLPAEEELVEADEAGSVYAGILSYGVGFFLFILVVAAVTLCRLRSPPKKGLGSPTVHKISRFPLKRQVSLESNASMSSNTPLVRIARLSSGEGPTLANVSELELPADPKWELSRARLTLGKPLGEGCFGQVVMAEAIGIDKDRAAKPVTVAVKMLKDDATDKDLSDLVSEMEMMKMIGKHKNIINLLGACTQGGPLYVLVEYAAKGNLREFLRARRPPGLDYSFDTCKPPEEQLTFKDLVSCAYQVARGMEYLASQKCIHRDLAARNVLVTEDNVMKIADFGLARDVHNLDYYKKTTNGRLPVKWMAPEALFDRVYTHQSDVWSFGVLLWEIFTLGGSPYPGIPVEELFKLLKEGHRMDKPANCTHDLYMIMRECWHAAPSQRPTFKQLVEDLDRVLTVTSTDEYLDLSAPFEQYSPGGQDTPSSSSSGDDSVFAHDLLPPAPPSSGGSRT
UniProt P36888, whole entry: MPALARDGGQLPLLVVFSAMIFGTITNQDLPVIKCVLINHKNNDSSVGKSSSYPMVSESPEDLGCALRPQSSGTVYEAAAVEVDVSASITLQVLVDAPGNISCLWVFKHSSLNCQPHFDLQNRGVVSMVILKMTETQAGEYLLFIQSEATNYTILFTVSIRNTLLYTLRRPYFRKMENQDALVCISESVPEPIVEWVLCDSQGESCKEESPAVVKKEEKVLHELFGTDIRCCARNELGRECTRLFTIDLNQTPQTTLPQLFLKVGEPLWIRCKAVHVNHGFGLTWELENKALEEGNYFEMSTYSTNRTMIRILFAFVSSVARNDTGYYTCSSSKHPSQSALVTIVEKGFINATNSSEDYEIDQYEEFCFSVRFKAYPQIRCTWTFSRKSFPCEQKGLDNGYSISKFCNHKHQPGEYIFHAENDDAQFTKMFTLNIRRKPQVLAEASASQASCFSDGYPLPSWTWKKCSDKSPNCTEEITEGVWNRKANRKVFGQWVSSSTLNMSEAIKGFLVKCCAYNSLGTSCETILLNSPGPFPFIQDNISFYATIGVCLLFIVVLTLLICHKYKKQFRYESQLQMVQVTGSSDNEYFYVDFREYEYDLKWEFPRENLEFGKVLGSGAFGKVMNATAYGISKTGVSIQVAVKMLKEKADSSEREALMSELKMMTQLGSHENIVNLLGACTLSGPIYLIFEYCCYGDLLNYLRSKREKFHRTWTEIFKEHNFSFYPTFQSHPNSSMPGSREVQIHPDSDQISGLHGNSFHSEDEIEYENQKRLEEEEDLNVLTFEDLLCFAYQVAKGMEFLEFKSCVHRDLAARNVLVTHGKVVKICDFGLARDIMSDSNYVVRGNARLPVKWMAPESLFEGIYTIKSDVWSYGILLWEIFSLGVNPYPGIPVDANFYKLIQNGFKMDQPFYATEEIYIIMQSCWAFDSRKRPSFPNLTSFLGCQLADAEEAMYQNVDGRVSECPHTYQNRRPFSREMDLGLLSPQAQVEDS
UniProt P06241, whole entry, looked up: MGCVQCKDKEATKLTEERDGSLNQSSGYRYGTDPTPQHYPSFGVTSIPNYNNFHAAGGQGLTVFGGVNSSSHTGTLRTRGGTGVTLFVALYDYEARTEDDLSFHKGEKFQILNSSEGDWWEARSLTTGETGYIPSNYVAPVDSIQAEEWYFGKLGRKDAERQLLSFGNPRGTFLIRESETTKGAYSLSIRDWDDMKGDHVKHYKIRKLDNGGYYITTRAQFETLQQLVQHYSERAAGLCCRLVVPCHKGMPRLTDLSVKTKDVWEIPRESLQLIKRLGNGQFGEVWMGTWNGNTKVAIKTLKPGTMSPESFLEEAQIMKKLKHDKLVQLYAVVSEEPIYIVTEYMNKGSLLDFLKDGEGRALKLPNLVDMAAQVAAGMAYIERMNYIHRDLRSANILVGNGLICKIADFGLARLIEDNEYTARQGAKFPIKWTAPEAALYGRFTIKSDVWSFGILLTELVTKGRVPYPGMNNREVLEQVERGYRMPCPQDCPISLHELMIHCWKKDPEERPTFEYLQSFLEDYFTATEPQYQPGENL

| Compound | kinase-Nluc reporter destabilization hit call (EGFR) | kinase-Nluc reporter destabilization hit call (EGFR_G719S) | kinase-Nluc reporter destabilization hit call (EGFR_G719S_T790M) | kinase-Nluc reporter destabilization hit call (EGFR_L718V) | kinase-Nluc reporter destabilization hit call (EGFR_L858R) | kinase-Nluc reporter destabilization hit call (EGFR_L861Q) | kinase-Nluc reporter destabilization hit call (EGFR_T790M) | kinase-Nluc reporter destabilization hit call (EPHA2) | kinase-Nluc reporter destabilization hit call (ERBB3) | kinase-Nluc reporter destabilization hit call [1] | kinase-Nluc reporter destabilization hit call (ERN1) | kinase-Nluc reporter destabilization hit call (FGFR1) | kinase-Nluc reporter destabilization hit call (FGFR2) | kinase-Nluc reporter destabilization hit call (FGFR3) | kinase-Nluc reporter destabilization hit call (FGR) | kinase-Nluc reporter destabilization hit call (FLT3) | kinase-Nluc reporter destabilization hit call (FYN) | kinase-Nluc reporter destabilization hit call (GSK3A) | kinase-Nluc reporter destabilization hit call (HER2) | kinase-Nluc reporter destabilization hit call (INSRR) |
| --- | --- | --- | --- | --- | --- | --- | --- | --- | --- | --- | --- | --- | --- | --- | --- | --- | --- | --- | --- | --- |
| CC(=O)N1CCN(c2cc(-c3cc(C(F)(F)F)c4c(N)ncnn34)ccc2C#N)C(=O)C1(C)C (10 µM) | inactive: 0 | inactive: 0 | inactive: 0 | inactive: 0 | inactive: 0 | inactive: 0 | inactive: 0 | inactive: 0 | inactive: 0 | inactive: 0 | inactive: 0 | inactive: 0 | inactive: 0 | inactive: 0 | inactive: 0 | inactive: 0 | inactive: 0 | inactive: 0 | inactive: 0 | inactive: 0 |
| C#CCN(C)C(=O)CCNc1nc(N2CCN(C(=O)C=C)CC2)c2cc(Cl)c(-c3c(O)cccc3F)c(F)c2n1 [ARS-1323-alkyne] (2.5 µM) | inactive: 0 | inactive: 0 | inactive: 0 | inactive: 0 | inactive: 0 | inactive: 0 | inactive: 0 | inactive: 0 | inactive: 0 | inactive: 0 | inactive: 0 | inactive: 0 | inactive: 0 | inactive: 0 | inactive: 0 | inactive: 0 | inactive: 0 | inactive: 0 | inactive: 0 | inactive: 0 |
| CC(=NNC(=O)c1ccc(C)c(Br)c1)c1ccc(O)cc1O [mTOR inhibitor-1] (2.5 µM) | inactive: 0 | inactive: 0 | inactive: 0 | inactive: 0 | inactive: 0 | inactive: 0 | inactive: 0 | inactive: 0 | inactive: 0 | inactive: 0 | inactive: 0 | inactive: 0 | inactive: 0 | inactive: 0 | inactive: 0 | inactive: 0 | inactive: 0 | inactive: 0 | inactive: 0 | inactive: 0 |
| Cn1nccc1Nc1nccc(-c2cc3c(s2)C(C)(C)N(CCN2CCOCC2)C3=O)n1 (10 µM) | inactive: 0 | inactive: 0 | inactive: 0 | inactive: 0 | inactive: 0 | inactive: 0 | inactive: 0 | inactive: 0 | inactive: 0 | inactive: 0 | inactive: 0 | inactive: 0 | inactive: 0 | inactive: 0 | inactive: 0 | inactive: 0 | inactive: 0 | inactive: 0 | inactive: 0 | inactive: 0 |
| COc1cc2ncn(-c3cc(OCc4ccccc4S(C)(=O)=O)c(C#N)s3)c2cc1OC (10 µM) | inactive: 0 | inactive: 0 | inactive: 0 | inactive: 0 | inactive: 0 | inactive: 0 | inactive: 0 | inactive: 0 | inactive: 0 | inactive: 0 | inactive: 0 | inactive: 0 | inactive: 0 | inactive: 0 | inactive: 0 | inactive: 0 | inactive: 0 | inactive: 0 | inactive: 0 | inactive: 0 |
| CO[C@H]1C[C@@H]2CC[C@@H](C)[C@@](O)(O2)C(=O)C(=O)N2CCCC[C@H]2C(=O)O[C@H]([C@H](C)C[C@@H]2CC[C@@H](O)[C@H](OC)C2)CC(=O)[C@H](C)/C=C(\C)[C@@H](O)[C@@H](OC)C(=O)[C@H](C)C[C@H](C)/C=C/C=C/C=C/1C [Rapamycin] (10 µM) | inactive: 0 | inactive: 0 | inactive: 0 | inactive: 0 | inactive: 0 | inactive: 0 | inactive: 0 | inactive: 0 | inactive: 0 | inactive: 0 | inactive: 0 | inactive: 0 | inactive: 0 | inactive: 0 | inactive: 0 | inactive: 0 | inactive: 0 | inactive: 0 | inactive: 0 | inactive: 0 |
| CC(C)CN(CC(=O)N1CCN(CC(OCc2ccc3ccccc3c2)c2ccc(Cl)cc2Cl)CC1)CC(C)C (stereo not given) [LYN-1604 (dihydrochloride)] (2.5 µM) | inactive: 0 | inactive: 0 | inactive: 0 | inactive: 0 | inactive: 0 | inactive: 0 | inactive: 0 | inactive: 0 | inactive: 0 | inactive: 0 | inactive: 0 | inactive: 0 | inactive: 0 | inactive: 0 | inactive: 0 | inactive: 0 | inactive: 0 | inactive: 0 | inactive: 0 | inactive: 0 |
| N#Cc1ccc2ncnc(NC3CCC(N4CCOCC4)CC3)c2c1 (stereo not given) (10 µM) | inactive: 0 | inactive: 0 | inactive: 0 | inactive: 0 | inactive: 0 | inactive: 0 | inactive: 0 | inactive: 0 | inactive: 0 | inactive: 0 | inactive: 0 | inactive: 0 | inactive: 0 | inactive: 0 | inactive: 0 | inactive: 0 | inactive: 0 | inactive: 0 | inactive: 0 | inactive: 0 |
| COc1ccc(C(=O)Nc2sc3c(c2C(N)=O)CCCC3)cc1OC (10 µM) | inactive: 0 | inactive: 0 | inactive: 0 | inactive: 0 | inactive: 0 | inactive: 0 | inactive: 0 | inactive: 0 | inactive: 0 | inactive: 0 | inactive: 0 | inactive: 0 | inactive: 0 | inactive: 0 | inactive: 0 | inactive: 0 | inactive: 0 | inactive: 0 | inactive: 0 | inactive: 0 |
| N#Cc1c(-c2ccccc2)cc(-c2cc(Br)ccc2O)[nH]c1=O (10 µM) | inactive: 0 | inactive: 0 | inactive: 0 | inactive: 0 | inactive: 0 | inactive: 0 | inactive: 0 | inactive: 0 | inactive: 0 | inactive: 0 | inactive: 0 | inactive: 0 | inactive: 0 | inactive: 0 | inactive: 0 | inactive: 0 | inactive: 0 | inactive: 0 | inactive: 0 | inactive: 0 |
| CC1CN(C(=O)Nc2ccc(Cl)c(Cl)c2)C(=Nc2ccc(F)cc2)S1 (stereo not given) (10 µM) | inactive: 0 | inactive: 0 | inactive: 0 | inactive: 0 | inactive: 0 | inactive: 0 | inactive: 0 | inactive: 0 | inactive: 0 | inactive: 0 | inactive: 0 | inactive: 0 | inactive: 0 | inactive: 0 | inactive: 0 | inactive: 0 | inactive: 0 | inactive: 0 | inactive: 0 | inactive: 0 |
| CC(C)=CC(=O)CCC(=O)N1CCN(Cc2cc3nc(-c4cccc5[nH]ncc45)nc(N4CCOCC4)c3s2)CC1 (10 µM) | inactive: 0 | active: 1 | inactive: 0 | inactive: 0 | inactive: 0 | inactive: 0 | inactive: 0 | inactive: 0 | inactive: 0 | inactive: 0 | inactive: 0 | inactive: 0 | inactive: 0 | inactive: 0 | inactive: 0 | inactive: 0 | inactive: 0 | inactive: 0 | active: 1 | inactive: 0 |
| COCCOc1cnc(Sc2cc(C)c(-c3csc(NC(=O)c4ccncc4)n3)c(C)c2)cn1 [T-1101 (tosylate)] (2.5 µM) | inactive: 0 | inactive: 0 | inactive: 0 | inactive: 0 | inactive: 0 | inactive: 0 | inactive: 0 | inactive: 0 | inactive: 0 | inactive: 0 | inactive: 0 | inactive: 0 | inactive: 0 | inactive: 0 | inactive: 0 | inactive: 0 | inactive: 0 | inactive: 0 | inactive: 0 | inactive: 0 |
| COc1cccc(-n2c(=O)[nH]c3cc(Cl)n(-c4ccc(-c5cccc(OC)c5O)cc4)c3c2=O)c1 (2.5 µM) | inactive: 0 | inactive: 0 | inactive: 0 | inactive: 0 | inactive: 0 | inactive: 0 | inactive: 0 | inactive: 0 | inactive: 0 | inactive: 0 | inactive: 0 | inactive: 0 | inactive: 0 | inactive: 0 | inactive: 0 | inactive: 0 | inactive: 0 | inactive: 0 | inactive: 0 | inactive: 0 |
| NCc1ccc(Nc2ncc(F)c(Nc3ccccc3)n2)cc1 (10 µM) | inactive: 0 | inactive: 0 | inactive: 0 | inactive: 0 | inactive: 0 | inactive: 0 | inactive: 0 | inactive: 0 | inactive: 0 | inactive: 0 | inactive: 0 | inactive: 0 | inactive: 0 | inactive: 0 | inactive: 0 | inactive: 0 | inactive: 0 | inactive: 0 | inactive: 0 | inactive: 0 |
| O=C1NC(=O)C(=Cc2ccc(-c3ccc(F)cc3)o2)S1 (stereo in doubt) (10 µM) | inactive: 0 | inactive: 0 | inactive: 0 | inactive: 0 | inactive: 0 | inactive: 0 | inactive: 0 | inactive: 0 | inactive: 0 | inactive: 0 | inactive: 0 | inactive: 0 | inactive: 0 | inactive: 0 | inactive: 0 | inactive: 0 | inactive: 0 | inactive: 0 | inactive: 0 | inactive: 0 |
| C=C(C)C(=O)Nc1cccc(-c2ncnc3[nH]cc(C(=O)OCC)c23)c1 (10 µM) | inactive: 0 | inactive: 0 | inactive: 0 | inactive: 0 | inactive: 0 | inactive: 0 | inactive: 0 | inactive: 0 | inactive: 0 | inactive: 0 | inactive: 0 | inactive: 0 | inactive: 0 | inactive: 0 | inactive: 0 | inactive: 0 | inactive: 0 | inactive: 0 | inactive: 0 | inactive: 0 |
| CC/C=C\C/C=C\C/C=C\CCCCCCCC(=O)O [α-Linolenic acid] (10 µM) | inactive: 0 | inactive: 0 | inactive: 0 | inactive: 0 | inactive: 0 | inactive: 0 | inactive: 0 | inactive: 0 | inactive: 0 | inactive: 0 | inactive: 0 | inactive: 0 | inactive: 0 | inactive: 0 | inactive: 0 | inactive: 0 | inactive: 0 | inactive: 0 | inactive: 0 | inactive: 0 |

Some of the entries so far, tab-delimited.
Compound	kinase-Nluc reporter destabilization hit call (EGFR)	kinase-Nluc reporter destabilization hit call (EGFR_G719S)	kinase-Nluc reporter destabilization hit call (EGFR_G719S_T790M)	kinase-Nluc reporter destabilization hit call (EGFR_L718V)	kinase-Nluc reporter destabilization hit call (EGFR_L858R)	kinase-Nluc reporter destabilization hit call (EGFR_L861Q)	kinase-Nluc reporter destabilization hit call (EGFR_T790M)	kinase-Nluc reporter destabilization hit call (EPHA2)	kinase-Nluc reporter destabilization hit call (ERBB3)	kinase-Nluc reporter destabilization hit call [1]	kinase-Nluc reporter destabilization hit call (ERN1)	kinase-Nluc reporter destabilization hit call (FGFR1)	kinase-Nluc reporter destabilization hit call (FGFR2)	kinase-Nluc reporter destabilization hit call (FGFR3)	kinase-Nluc reporter destabilization hit call (FGR)	kinase-Nluc reporter destabilization hit call (FLT3)	kinase-Nluc reporter destabilization hit call (FYN)	kinase-Nluc reporter destabilization hit call (GSK3A)	kinase-Nluc reporter destabilization hit call (HER2)	kinase-Nluc reporter destabilization hit call (INSRR)
N#Cc1ccc2ncnc(NC3CCC(N4CCOCC4)CC3)c2c1 (stereo not given) (10 µM)	inactive: 0	inactive: 0	inactive: 0	inactive: 0	inactive: 0	inactive: 0	inactive: 0	inactive: 0	inactive: 0	inactive: 0	inactive: 0	inactive: 0	inactive: 0	inactive: 0	inactive: 0	inactive: 0	inactive: 0	inactive: 0	inactive: 0	inactive: 0
COc1ccc(C(=O)Nc2sc3c(c2C(N)=O)CCCC3)cc1OC (10 µM)	inactive: 0	inactive: 0	inactive: 0	inactive: 0	inactive: 0	inactive: 0	inactive: 0	inactive: 0	inactive: 0	inactive: 0	inactive: 0	inactive: 0	inactive: 0	inactive: 0	inactive: 0	inactive: 0	inactive: 0	inactive: 0	inactive: 0	inactive: 0
